These results are taken from the supplement of paper PMC10849652.

Protein sequences, listed by entry. Tags and fused reporters are not part of them. Lines headed by an entry give the natural chain unless they say otherwise; changes in a name come on top.
UniProt O60701: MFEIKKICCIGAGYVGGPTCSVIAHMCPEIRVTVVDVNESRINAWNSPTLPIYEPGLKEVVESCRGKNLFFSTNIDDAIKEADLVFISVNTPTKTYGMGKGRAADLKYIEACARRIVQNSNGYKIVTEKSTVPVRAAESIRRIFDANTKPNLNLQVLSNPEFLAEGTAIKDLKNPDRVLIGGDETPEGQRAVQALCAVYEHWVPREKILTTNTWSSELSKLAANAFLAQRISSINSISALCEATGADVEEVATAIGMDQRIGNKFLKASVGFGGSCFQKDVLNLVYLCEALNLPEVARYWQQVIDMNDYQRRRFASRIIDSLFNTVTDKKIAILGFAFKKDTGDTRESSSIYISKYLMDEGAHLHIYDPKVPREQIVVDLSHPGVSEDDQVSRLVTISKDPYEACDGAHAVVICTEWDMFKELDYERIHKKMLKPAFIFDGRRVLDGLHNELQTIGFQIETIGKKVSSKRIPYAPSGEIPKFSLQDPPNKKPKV
UniProt Q8TAA9: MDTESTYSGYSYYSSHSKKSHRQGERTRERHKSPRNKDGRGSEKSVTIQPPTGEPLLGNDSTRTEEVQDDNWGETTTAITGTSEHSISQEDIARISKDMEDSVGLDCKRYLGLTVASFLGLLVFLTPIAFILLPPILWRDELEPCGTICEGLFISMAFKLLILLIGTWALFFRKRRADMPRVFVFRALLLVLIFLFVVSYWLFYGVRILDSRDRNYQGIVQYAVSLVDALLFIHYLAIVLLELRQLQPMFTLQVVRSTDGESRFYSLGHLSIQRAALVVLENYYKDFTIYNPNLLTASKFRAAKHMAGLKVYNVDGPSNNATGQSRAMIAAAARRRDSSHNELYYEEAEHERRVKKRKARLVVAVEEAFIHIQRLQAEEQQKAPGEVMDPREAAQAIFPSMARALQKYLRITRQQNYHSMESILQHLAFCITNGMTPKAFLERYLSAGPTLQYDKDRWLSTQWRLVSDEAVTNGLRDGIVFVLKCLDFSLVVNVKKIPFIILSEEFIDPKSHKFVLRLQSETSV
UniProt Q9Y3C8: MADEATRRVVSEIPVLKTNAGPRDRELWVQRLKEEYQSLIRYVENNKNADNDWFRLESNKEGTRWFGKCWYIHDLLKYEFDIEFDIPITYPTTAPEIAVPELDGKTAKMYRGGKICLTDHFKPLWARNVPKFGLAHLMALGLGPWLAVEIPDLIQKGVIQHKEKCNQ
UniProt O14957: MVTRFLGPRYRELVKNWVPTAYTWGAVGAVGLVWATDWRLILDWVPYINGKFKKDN
UniProt Q96RL1: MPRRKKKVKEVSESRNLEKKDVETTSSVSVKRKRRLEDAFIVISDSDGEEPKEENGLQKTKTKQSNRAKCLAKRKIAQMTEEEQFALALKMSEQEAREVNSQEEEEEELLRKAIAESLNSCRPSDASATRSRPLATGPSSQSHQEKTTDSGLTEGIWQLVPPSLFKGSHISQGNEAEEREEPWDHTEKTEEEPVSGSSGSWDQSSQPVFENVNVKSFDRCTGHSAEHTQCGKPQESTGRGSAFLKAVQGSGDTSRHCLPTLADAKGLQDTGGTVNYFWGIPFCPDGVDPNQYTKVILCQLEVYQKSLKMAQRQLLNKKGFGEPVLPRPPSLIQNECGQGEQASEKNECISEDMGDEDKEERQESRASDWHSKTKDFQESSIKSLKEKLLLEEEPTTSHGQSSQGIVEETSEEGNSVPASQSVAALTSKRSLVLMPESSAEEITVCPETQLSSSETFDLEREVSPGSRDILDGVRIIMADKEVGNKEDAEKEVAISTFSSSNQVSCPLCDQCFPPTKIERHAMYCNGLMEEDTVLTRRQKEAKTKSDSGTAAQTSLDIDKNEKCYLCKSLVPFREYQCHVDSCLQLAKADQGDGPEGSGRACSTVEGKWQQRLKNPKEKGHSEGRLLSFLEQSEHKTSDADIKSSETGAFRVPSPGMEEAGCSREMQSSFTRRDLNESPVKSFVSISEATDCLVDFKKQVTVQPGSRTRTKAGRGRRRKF
UniProt P14927: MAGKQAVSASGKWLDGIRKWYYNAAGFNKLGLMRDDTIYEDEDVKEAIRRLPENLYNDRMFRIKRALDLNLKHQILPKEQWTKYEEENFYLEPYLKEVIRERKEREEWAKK
UniProt P45974: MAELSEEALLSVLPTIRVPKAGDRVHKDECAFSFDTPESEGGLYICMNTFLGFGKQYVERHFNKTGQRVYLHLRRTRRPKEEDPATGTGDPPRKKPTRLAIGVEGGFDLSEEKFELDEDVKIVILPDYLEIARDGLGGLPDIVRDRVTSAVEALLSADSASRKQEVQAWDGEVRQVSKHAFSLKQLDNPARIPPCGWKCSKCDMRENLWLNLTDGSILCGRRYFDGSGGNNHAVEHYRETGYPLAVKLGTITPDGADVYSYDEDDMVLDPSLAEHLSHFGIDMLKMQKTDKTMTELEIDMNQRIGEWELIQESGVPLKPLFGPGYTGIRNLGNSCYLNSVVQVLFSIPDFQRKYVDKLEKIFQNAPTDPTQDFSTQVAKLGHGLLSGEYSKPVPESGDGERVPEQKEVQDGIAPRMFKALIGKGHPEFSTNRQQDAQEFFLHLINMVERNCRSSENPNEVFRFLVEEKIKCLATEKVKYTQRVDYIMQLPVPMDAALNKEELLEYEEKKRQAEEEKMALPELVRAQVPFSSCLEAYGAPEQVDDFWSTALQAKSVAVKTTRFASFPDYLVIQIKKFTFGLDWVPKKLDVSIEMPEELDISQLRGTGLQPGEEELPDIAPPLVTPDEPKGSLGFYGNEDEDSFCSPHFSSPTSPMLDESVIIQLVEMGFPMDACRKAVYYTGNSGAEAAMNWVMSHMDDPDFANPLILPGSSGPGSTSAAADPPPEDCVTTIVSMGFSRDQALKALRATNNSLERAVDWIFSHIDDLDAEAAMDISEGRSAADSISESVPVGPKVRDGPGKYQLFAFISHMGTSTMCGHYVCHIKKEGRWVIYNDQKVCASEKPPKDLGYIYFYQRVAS
UniProt Q9NYU1: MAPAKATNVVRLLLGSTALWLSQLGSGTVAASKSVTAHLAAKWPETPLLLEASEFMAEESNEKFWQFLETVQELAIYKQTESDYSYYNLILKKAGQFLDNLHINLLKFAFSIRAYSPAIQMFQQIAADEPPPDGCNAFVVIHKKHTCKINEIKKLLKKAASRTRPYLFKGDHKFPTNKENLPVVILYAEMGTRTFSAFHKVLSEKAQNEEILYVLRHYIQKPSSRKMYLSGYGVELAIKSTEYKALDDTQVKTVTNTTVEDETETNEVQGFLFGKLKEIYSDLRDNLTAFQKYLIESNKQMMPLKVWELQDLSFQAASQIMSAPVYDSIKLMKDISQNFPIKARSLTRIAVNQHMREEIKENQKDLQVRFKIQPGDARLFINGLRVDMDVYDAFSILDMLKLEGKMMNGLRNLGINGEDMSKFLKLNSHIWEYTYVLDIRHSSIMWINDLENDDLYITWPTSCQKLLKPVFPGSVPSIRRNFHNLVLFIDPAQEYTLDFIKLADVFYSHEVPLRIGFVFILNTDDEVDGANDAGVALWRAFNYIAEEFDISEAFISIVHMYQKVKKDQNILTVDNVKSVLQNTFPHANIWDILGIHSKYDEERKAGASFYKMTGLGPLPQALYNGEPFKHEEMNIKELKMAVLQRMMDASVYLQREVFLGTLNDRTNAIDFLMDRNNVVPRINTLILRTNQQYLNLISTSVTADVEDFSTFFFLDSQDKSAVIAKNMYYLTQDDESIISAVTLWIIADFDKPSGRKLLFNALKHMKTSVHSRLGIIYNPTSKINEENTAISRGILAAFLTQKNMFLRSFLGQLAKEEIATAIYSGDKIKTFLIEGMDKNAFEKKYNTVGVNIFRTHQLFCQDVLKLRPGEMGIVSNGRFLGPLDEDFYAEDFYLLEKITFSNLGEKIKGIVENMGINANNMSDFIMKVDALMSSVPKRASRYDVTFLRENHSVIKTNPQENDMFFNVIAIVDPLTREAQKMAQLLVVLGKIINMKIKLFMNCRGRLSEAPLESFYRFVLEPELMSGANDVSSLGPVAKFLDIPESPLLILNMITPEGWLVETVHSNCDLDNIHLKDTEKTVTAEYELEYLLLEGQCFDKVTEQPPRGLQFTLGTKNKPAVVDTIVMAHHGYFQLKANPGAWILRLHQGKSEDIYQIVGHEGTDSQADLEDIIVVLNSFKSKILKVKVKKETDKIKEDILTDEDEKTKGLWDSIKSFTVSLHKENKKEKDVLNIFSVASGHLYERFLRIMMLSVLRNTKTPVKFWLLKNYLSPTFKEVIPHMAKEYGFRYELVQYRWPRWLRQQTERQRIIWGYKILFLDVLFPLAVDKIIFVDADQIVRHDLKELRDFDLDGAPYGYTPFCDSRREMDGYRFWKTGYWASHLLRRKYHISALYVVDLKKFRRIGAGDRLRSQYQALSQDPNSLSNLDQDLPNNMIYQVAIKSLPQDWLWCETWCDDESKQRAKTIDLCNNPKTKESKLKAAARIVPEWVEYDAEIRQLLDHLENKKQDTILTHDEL
UniProt P07919: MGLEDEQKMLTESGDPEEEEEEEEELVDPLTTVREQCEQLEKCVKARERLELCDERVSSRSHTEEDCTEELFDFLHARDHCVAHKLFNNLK
UniProt Q9BZI7: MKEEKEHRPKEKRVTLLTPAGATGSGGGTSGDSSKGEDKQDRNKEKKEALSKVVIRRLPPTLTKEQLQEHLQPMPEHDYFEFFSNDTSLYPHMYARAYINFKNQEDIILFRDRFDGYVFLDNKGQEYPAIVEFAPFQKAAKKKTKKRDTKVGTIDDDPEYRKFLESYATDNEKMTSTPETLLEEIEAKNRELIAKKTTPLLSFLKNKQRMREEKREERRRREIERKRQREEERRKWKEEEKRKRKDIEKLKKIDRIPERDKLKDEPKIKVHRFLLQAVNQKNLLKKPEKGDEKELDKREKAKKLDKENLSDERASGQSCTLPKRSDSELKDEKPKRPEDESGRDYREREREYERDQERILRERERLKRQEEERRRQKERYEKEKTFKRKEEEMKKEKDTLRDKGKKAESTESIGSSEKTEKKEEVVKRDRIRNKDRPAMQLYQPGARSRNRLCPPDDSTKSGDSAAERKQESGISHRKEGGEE
UniProt P63027, whole entry, looked up: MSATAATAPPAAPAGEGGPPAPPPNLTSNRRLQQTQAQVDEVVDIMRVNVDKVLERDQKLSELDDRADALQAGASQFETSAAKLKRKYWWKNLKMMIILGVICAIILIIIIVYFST
UniProt O94874: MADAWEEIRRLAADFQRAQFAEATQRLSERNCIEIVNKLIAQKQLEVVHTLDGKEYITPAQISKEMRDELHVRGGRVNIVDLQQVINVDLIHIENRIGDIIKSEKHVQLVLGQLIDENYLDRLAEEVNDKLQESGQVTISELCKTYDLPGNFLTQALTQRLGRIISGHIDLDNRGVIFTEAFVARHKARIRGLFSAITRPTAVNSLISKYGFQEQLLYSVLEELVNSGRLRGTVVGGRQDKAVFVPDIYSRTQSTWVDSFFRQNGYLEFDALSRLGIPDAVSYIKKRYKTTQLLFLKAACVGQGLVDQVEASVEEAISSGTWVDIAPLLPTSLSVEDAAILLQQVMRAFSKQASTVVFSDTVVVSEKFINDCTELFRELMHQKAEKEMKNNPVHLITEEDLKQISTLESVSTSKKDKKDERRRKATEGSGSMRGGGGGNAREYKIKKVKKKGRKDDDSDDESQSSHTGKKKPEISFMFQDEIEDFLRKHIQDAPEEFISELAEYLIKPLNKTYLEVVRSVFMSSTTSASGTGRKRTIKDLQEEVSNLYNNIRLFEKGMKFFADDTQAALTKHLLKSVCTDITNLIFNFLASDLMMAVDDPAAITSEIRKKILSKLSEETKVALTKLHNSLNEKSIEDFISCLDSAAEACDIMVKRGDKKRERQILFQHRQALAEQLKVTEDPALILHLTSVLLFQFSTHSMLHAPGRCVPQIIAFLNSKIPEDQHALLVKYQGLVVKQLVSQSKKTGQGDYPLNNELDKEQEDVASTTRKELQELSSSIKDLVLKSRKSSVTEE
UniProt Q9BZM5, whole entry, looked up: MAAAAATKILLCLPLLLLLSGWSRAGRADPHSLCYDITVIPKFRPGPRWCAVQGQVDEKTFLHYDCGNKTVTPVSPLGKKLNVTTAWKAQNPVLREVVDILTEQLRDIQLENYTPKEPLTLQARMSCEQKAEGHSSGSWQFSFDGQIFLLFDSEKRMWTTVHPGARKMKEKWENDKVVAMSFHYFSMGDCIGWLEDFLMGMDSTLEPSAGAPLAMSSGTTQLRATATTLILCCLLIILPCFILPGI
UniProt Q8NBZ7: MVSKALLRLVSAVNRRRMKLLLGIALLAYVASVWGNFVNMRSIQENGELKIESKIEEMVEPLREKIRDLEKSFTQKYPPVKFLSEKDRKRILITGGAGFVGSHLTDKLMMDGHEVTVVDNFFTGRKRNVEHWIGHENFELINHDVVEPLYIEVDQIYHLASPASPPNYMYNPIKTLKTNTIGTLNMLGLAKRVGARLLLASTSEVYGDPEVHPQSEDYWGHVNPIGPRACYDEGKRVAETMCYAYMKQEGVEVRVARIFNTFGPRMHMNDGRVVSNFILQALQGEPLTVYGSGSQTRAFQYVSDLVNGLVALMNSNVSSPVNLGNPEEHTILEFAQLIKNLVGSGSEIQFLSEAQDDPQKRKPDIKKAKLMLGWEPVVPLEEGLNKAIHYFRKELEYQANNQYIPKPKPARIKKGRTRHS

This is one part of the list.

Compound in this experiment: Cc1cccc(CC(=O)N2CCc3c2ccc(-c2cn(C)c4ncnc(N)c24)c3F)n1
The experiment can be described thus: log2 fold change, soluble protein after heating vs DMSO (PISA); higher = thermal stabilisation; K562 lysate, 10 uM; active = over 0.2 and 3.5 SD of the protein, either way, in both replicates (recomputed). The method, boiled down: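 A 30 min treatment with 10 μM compound was applied to crude K562 extract at 1 mg/mL protein in PBS pH 7.4 with 1 mM MgCl2. Heating for 3 min spanned 48°C-58°C, after which aliquots were pooled, adjusted to 0.5% NP-40 at 4°C and spun at 21,000xg for 90 min. TMTpro 16plex LC-MS/MS of the supernatant, with channel sums equalised, gave values recorded as log-two fold change in thermal stability against solvent controls, from duplicates.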
As to UGDH (UniProt O60701), the log2 fold change is inactive: -0.022.

With USP32 (UniProt Q8NFA0), the log2 fold change was inactive: 0.085. To VIRMA (UniProt Q69YN4) belongs inactive: 0.065; to UFD1 isoform 1 (UniProt Q92890), inactive: -0.021. For VANGL1 (UniProt Q8TAA9), the log2 fold change was inactive: 0.084. Turning to VARS2, A0A0G2JL52, the log2 fold change was inactive: 0.109. UFC1 (UniProt Q9Y3C8): the log2 fold change was inactive: -0.057.

For UQCR11 (UniProt O14957), the log2 fold change was inactive: -0.055. On to UIMC1 (UniProt Q96RL1), for which the log2 fold change is inactive: -0.032.

Regarding UTP6 (UniProt Q9NYH9), the log2 fold change is inactive: 0.133. Take UQCRB (UniProt P14927): the log2 fold change is inactive: 0.024.

On to USP5 isoform 2 (UniProt P45974), for which the log2 fold change was inactive: 0.014.

UGGT2 (UniProt Q9NYU1): the log2 fold change is inactive: 0.058.

As for UQCRH (UniProt P07919), the log2 fold change is inactive: -0.005. On to VCP (UniProt P55072), for which the log2 fold change was inactive: -0.058. For UHRF1BP1 (UniProt Q6BDS2), the log2 fold change was inactive: 0.087. Consider UNC5B (UniProt Q8IZJ1), for which the log2 fold change was inactive: -0.062. As for VCX3B (UniProt Q9H321), the figure is inactive: 0.021. To UHRF1BP1L (UniProt A0JNW5) belongs inactive: 0.017. In the case of UNC45A (UniProt Q9H3U1), the log2 fold change is inactive: 0.021. Regarding UPF3B (UniProt Q9BZI7), the log2 fold change was inactive: 0.067. To UGGT1 (UniProt Q9NYU2) belongs inactive: 0.008. As for VAMP2 (UniProt P63027), the figure is inactive: -0.147; as for USP1 (UniProt O94782), inactive: 0.018; as for USP13 (UniProt Q92995), inactive: 0.075. On to UFL1 (UniProt O94874), for which the log2 fold change was inactive: 0.016. Take USP4 (UniProt Q13107): the log2 fold change was inactive: 0.021. Take VARS (UniProt P26640): the log2 fold change is inactive: 0.029. For ULBP2 (UniProt Q9BZM5), the log2 fold change is inactive: -0.049. Regarding UXS1 isoform 2 (UniProt Q8NBZ7), the log2 fold change is inactive: -0.001. On to USE1 (UniProt Q9NZ43), for which the log2 fold change is inactive: 0.027. In the case of USP48 isoform 8 (UniProt Q86UV5), the log2 fold change was inactive: 0.034.
